Experimental findings from PMC3162608 are described below.

Chains of the proteins cited; added tags and fusions are not shown.
UniProt P02340: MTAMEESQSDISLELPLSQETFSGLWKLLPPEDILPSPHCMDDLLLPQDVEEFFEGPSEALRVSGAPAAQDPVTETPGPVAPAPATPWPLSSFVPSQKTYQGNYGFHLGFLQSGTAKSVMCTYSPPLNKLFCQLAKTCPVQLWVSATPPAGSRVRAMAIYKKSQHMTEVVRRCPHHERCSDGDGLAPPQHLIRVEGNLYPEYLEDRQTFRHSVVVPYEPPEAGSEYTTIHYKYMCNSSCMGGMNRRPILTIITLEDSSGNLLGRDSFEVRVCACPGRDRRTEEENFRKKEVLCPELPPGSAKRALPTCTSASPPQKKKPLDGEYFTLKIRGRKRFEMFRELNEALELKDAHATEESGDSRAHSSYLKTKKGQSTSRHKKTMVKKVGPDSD
UniProt Q04207: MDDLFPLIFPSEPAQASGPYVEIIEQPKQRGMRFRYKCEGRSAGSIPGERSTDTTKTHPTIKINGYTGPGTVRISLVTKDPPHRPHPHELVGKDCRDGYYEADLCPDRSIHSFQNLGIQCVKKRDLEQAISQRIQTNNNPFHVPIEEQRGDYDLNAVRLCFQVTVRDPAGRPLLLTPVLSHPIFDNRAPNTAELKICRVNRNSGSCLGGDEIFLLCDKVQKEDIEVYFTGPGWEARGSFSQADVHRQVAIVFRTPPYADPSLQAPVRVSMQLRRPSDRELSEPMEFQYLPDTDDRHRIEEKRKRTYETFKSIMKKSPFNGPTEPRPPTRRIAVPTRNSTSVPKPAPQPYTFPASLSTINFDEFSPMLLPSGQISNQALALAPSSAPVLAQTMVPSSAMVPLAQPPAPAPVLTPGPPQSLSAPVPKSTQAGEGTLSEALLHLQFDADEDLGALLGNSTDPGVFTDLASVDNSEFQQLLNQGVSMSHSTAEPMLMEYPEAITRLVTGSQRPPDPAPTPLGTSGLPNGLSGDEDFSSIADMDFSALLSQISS

The target of the assay is p53 (mouse (endogenous in STHdhQ7/HdhQ7 and STHdhQ111/HdhQ111 cells)) (UniProt P02340). Put plainly: co-IP; Extracts of STHdhQ7/HdhQ7 and STHdhQ111/HdhQ111 cells in co-IP buffer (50 mM Tris pH 8.0, 150 mM NaCl, 1% NP40, protease inhibitors), pre-cleared, incubated overnight at 4°C with 1 µg anti-p53 antibody, captured on agarose-protein G beads, blotted with anti-p65 antibody.

Results are given in words; binding and its absence hold for the method and conditions named. In cells and extracts the contact can be indirect. Some binding calls cover weakened binding; strength is not graded here.

As to “p65 subunit of NFkB (RelA/NFkB) (from UniProt Q04207 1-549)”, the binding result is “binds”.
